Experimental data from article PMC5930937.

Amino acid sequences for entries named in this document (tags omitted).
UniProt Q62261: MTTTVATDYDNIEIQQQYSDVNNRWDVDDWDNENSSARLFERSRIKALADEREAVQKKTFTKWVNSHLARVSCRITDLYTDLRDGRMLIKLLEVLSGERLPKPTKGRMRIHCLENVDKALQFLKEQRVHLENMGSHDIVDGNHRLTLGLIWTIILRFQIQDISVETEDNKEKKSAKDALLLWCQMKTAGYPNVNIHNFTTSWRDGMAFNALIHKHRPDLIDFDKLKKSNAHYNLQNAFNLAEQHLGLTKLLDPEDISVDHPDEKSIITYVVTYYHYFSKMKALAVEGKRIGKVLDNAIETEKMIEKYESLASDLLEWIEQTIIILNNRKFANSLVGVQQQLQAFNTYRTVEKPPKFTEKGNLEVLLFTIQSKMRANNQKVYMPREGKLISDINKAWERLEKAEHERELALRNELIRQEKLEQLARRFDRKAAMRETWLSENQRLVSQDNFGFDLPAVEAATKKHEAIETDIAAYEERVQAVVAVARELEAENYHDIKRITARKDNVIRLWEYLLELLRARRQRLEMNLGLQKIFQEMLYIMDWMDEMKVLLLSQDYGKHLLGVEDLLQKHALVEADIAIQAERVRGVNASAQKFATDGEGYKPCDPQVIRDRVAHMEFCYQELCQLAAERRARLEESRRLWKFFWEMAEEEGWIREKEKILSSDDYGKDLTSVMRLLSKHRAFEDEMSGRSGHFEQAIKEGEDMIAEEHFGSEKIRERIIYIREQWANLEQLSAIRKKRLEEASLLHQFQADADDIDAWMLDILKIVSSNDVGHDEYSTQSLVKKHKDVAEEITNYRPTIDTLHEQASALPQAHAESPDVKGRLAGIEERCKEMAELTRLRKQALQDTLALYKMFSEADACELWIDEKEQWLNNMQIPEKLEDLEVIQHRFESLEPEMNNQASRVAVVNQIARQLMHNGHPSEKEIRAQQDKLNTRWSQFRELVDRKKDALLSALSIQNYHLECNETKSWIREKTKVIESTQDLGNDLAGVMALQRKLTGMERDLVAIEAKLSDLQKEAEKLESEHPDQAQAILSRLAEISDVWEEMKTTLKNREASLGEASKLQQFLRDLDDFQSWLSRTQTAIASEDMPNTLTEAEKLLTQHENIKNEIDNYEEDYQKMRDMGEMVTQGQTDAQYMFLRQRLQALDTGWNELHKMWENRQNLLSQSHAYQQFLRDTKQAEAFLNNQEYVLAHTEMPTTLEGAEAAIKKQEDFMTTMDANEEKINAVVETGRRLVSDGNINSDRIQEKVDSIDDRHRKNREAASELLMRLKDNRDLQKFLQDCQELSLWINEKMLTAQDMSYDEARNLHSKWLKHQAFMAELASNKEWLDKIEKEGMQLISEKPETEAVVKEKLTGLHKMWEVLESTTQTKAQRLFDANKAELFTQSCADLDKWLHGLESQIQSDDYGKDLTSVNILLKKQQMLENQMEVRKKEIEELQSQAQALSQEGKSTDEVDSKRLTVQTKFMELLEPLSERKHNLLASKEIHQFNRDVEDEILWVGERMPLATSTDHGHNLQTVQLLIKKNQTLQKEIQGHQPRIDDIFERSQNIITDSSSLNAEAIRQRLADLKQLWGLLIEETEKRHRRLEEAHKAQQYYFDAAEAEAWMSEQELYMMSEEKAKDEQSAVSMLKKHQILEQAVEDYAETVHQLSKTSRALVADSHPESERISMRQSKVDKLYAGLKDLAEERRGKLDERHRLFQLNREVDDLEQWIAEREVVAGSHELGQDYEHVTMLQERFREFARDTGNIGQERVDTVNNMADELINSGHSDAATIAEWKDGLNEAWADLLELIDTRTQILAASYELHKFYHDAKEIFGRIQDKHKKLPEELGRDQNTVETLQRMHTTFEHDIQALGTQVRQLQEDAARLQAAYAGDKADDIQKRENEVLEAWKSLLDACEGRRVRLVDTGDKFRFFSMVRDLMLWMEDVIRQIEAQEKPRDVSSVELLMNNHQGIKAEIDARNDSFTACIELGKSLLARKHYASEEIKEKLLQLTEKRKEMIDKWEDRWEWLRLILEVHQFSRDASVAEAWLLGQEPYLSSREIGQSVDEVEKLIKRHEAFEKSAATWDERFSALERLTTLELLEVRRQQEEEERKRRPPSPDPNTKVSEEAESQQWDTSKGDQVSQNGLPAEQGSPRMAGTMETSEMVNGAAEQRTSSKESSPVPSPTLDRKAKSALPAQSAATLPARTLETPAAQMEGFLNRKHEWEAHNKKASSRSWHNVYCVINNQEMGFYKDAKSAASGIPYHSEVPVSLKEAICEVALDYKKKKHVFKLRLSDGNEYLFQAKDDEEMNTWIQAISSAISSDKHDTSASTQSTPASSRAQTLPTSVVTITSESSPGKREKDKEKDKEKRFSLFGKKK

Columns and labels:
[1] = molecular target: T1, Human biotin-Cav3.2-CT 1860–1884 peptide (human); assay: affinity purification with mass spectrometry; biotinylated peptide (5 μg) as bait with mouse brain lysate (500 μg, precleared with neutravidin beads), 2 h at 4 °C, 50 mM Tris pH 7.6, 150 mM NaCl, 0.2% Triton X-100, 0.2% NP40, 10 mM EDTA, 10 mM EGTA; SDS-PAGE, Coomassie, bands excised, MALDI/TOF-MS; only the target purified
T1 sequence (peptide, covalently linked to a C-terminal biotin): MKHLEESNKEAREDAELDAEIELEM

[2] = molecular target: T2, biotin-Cav3.2-CT scramble peptide; assay: as above
T2 sequence (peptide, covalently linked to a C-terminal biotin): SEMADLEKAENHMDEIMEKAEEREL

Row | binding [1] | binding [2] | Substance
1 | binds | no binding (tested: 5 μg peptide) | spectrin-αII (SPTAN1), mouse brain (from UniProt P16546 1-2472)
2 | binds | no binding (tested: 5 μg peptide) | spectrin-β (SPTBN1), mouse brain (from UniProt Q62261 1-2363)

No constants are given. Whether binding was seen depends on the method and setting. Binding seen in cells or lysates may run through a third protein. These calls come from enrichment with a bait or labelling near it, and not all partners need be listed. For some of these results: No binding means not detected with the bait.
